Data as given in PubChem BioAssay AID743454 (Peter MacCallum Cancer Centre, 2014).

- Assay: 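Knock-downs lowering viability or raising caspase 3/7 activity in vorinostat-treated resistant cells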 (primary screen)
- Cells: human HCT116-VR colon cancer cells, selected for vorinostat resistance
- Reagents: siRNA pool against human genes, 40 nM siRNA pool
- Timing: vorinostat for 24 h, read-out about 72 h after transfection
- Treatment: vorinostat at 2.5 µM final
- Measurement: 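Two measures, CellTiter-Fluor viability and luminescent caspase 3/7 activity, each as fold change against same-plate mock wells, mean of duplicates, then screen-wide robust z-score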
- Scale: viability robust z-score: higher = more viable cells than screen typical; caspase robust z-score: higher = more caspase 3/7 activity than screen typical
- Rule for the call: 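a knock-down is a hit when classed RV1 or RV2 for lowered viability, or CA1 or CA2 for caspase activation; those lethal without drug were dropped; hits were retested singly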
Shown is an unselected part of about 18,000 reagents. 450 of all reagents (2.5%) were called active. 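Single biological run; no consistent viability z cut-off exists, so the class columns, not z-scores, define the calls.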

Knock-down of ZP2 (zona pellucida glycoprotein 2) gave: viability hit class no change; caspase hit class no change; viability robust z-score 1.25; caspase robust z-score 0.08; inactive.
GNB2 (G protein subunit beta 2) gave viability hit class no change; caspase hit class no change; viability robust z-score 0.84; caspase robust z-score -0.07; inactive.
With knock-down of AGXT2 (alanine--glyoxylate aminotransferase 2) the results were viability hit class no change; caspase hit class no change; viability robust z-score -1.02; caspase robust z-score -0.59; inactive.
For ATP6V1G3 (ATPase H+ transporting V1 subunit G3), the values are viability hit class no change; caspase hit class no change; viability robust z-score 0.75; caspase robust z-score -0.81; inactive.
PRNP (prion protein (Kanno blood group)) scored viability hit class no change; caspase hit class no change; viability robust z-score 0.72; caspase robust z-score -0.32; inactive.
With knock-down of SCD (stearoyl-CoA desaturase), the screen gave viability hit class no change; caspase hit class no change; viability robust z-score -0.82; caspase robust z-score 0.47; inactive.
After knock-down of COTL1 (coactosin like F-actin binding protein 1) the results were viability hit class no change; caspase hit class no change; viability robust z-score -2.1; caspase robust z-score 0.66; inactive.
After knock-down of AP2B1 (adaptor related protein complex 2 subunit beta 1), the screen gave viability hit class no change; caspase hit class no change; viability robust z-score -0.15; caspase robust z-score -0.18; inactive.
With knock-down of PLPBP (pyridoxal phosphate binding protein) the results were viability hit class no change; caspase hit class no change; viability robust z-score 0.03; caspase robust z-score -0.12; inactive.
For ATP6V1G2 (ATPase H+ transporting V1 subunit G2), the values are viability hit class no change; caspase hit class no change; viability robust z-score 0.18; caspase robust z-score -0.34; inactive.

Already shown: an excerpt of the list.
ATP6V1G3 (ATPase H+ transporting V1 subunit G3): viability hit class = no change; caspase hit class = no change; viability robust z-score = 0.75; caspase robust z-score = -0.81; Outcome = inactive
PRNP (prion protein (Kanno blood group)): viability hit class = no change; caspase hit class = no change; viability robust z-score = 0.72; caspase robust z-score = -0.32; Outcome = inactive
SCD (stearoyl-CoA desaturase): viability hit class = no change; caspase hit class = no change; viability robust z-score = -0.82; caspase robust z-score = 0.47; Outcome = inactive

Additional entries follow:
Against GSTK1 (glutathione S-transferase kappa 1), the values are viability hit class no change; caspase hit class no change; viability robust z-score 0.78; caspase robust z-score -0.7; inactive.
Depletion of ARHGEF15 (Rho guanine nucleotide exchange factor 15) resulted in: viability hit class no change; caspase hit class no change; viability robust z-score -0.57; caspase robust z-score 0.26; inactive.
PLCD3 (phospholipase C delta 3) showed viability hit class no change; caspase hit class no change; viability robust z-score 0.19; caspase robust z-score -0.9; inactive.
OR5M1 (olfactory receptor family 5 subfamily M member 1) showed viability hit class no change; caspase hit class no change; viability robust z-score -0.28; caspase robust z-score 0.66; inactive.
Silencing of RNF126 (ring finger protein 126) gave: viability hit class no change; caspase hit class no change; viability robust z-score -0.18; caspase robust z-score -0.96; inactive.
Knock-down of PLSCR4 (phospholipid scramblase 4) resulted in: viability hit class no change; caspase hit class no change; viability robust z-score 0.42; caspase robust z-score 0.4; inactive.
Silencing of ATP6V1F (ATPase H+ transporting V1 subunit F) gave: viability hit class no change; caspase hit class no change; viability robust z-score 0.12; caspase robust z-score 0.12; inactive.
VARS2 (valyl-tRNA synthetase 2, mitochondrial) gave viability hit class no change; caspase hit class no change; viability robust z-score 2.25; caspase robust z-score 0.04; inactive.
For STX12 (syntaxin 12), the values are viability hit class no change; caspase hit class no change; viability robust z-score -0.29; caspase robust z-score 0.28; inactive.
For SLC22A2 the deposit lists viability hit class no change; caspase hit class no change; viability robust z-score 0.55; caspase robust z-score -0.3; inactive.
AFAP1L1 (actin filament associated protein 1 like 1) gave viability hit class no change; caspase hit class no change; viability robust z-score -0.44; caspase robust z-score 0.96; inactive.
